For at least one compound, name, drawing or mass did not settle the structure.
Tested on: Klebsiella pneumoniae
Experiment: Compound utilization of environmental isolates (growth on minimal medium)
Format: cell-based
Conditions: 2-KLG column, 72 HR

For `O=C(O)C(=O)[C@@H](O)[C@H](O)[C@@H](O)CO` [2-KLG, 2-keto-L-gulonate], the Compound utilization was “−”.

— patent US6368793B1, “Metabolic selection methods” (MicroGenomics, Inc., priority 1998, dated 2002)
